Laboratory results taken from publication PMC6570896.

Sequences of proteins named here, by UniProt entry; tags and fusion partners are left off. A change or cut given only in a name is not applied to a line headed by its entry.
UniProt Q9CAQ8: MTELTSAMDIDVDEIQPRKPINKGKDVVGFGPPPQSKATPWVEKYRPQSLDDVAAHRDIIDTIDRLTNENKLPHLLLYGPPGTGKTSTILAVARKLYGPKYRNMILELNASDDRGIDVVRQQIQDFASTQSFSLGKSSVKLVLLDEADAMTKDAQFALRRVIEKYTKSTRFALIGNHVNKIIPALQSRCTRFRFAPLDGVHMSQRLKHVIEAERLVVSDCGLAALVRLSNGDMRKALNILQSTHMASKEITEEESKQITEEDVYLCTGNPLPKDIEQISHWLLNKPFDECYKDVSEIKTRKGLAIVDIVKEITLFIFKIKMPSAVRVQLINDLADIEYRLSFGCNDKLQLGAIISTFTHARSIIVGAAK
UniProt Q8VXX4: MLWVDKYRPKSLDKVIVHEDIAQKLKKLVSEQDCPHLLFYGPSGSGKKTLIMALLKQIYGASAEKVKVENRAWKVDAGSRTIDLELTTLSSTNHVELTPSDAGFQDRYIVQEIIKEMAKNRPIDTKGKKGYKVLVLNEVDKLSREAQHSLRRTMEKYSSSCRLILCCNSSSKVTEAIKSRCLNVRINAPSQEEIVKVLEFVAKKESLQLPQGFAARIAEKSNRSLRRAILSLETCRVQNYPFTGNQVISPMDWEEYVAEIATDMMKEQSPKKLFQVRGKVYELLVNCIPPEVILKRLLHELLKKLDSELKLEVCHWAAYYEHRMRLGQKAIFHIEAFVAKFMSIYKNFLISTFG
UniProt Q9M7Q7: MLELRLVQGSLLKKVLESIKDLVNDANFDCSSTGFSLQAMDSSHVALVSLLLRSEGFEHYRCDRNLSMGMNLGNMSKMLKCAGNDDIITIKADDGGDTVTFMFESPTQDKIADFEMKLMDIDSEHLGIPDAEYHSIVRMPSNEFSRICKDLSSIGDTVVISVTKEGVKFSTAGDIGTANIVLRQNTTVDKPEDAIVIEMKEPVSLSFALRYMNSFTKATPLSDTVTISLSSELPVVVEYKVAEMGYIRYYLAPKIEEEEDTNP
UniProt Q9ZW35: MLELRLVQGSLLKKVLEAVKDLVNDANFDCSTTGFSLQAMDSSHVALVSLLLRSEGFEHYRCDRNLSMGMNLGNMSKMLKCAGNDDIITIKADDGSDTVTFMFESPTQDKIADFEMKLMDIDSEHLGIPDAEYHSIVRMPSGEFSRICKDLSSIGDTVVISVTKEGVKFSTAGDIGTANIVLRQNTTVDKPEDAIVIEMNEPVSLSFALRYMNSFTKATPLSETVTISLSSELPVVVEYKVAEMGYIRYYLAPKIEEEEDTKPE
UniProt P17070: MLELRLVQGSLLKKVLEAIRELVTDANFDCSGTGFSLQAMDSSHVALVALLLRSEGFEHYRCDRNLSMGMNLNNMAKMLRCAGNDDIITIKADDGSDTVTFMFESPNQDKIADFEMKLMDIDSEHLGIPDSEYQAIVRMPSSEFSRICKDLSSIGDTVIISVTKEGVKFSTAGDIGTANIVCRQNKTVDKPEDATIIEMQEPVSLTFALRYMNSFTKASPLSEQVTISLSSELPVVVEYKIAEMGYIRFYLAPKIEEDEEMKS

Tests used:
[1] = molecular target: AtRFC3-BD (Arabidopsis thaliana) (UniProt Q9CAQ8); test: two-hybrid; Clontech system, yeast AH109; RFC subunits as BD fusions, PCNAs as AD fusions; growth on SD-Leu-Trp-His-Ade, 7 days at 28 °C
[2] = molecular target: AtRFC5-BD (Arabidopsis thaliana) (UniProt Q8VXX4); test: as above
[3] = molecular target: AtRFC3-YFP^N (Arabidopsis thaliana) (UniProt Q9CAQ8); test: split reporter; BiFC: fusions to YFP^N (1-155 aa) and YFP^C (156-239 aa) co-expressed transiently in Nicotiana benthamiana leaf epidermal cells; YFP seen by confocal microscopy
[4] = molecular target: AtRFC5-YFP^N (Arabidopsis thaliana) (UniProt Q8VXX4); test: as above
[5] = molecular target: truncated AtRFC5 lacking 239 aa in its N-terminal (Arabidopsis thaliana) (UniProt Q8VXX4); test: as above
[6] = molecular target: AtRFC5 Δ335–354 (Arabidopsis thaliana) (UniProt Q8VXX4); test: as above
[7] = molecular target: AtRFC3 with deletion of the N-terminus 1 to 247 aa (Arabidopsis thaliana) (UniProt Q9CAQ8); test: as above
[8] = molecular target: AtRFC3 Δ350–369 (Arabidopsis thaliana) (UniProt Q9CAQ8); test: as above

| Substance | binding [1] | binding [2] | binding [3] | binding [4] | binding [5] | binding [6] | binding [7] | binding [8] |
| --- | --- | --- | --- | --- | --- | --- | --- | --- |
| AtPCNA1-AD (from UniProt Q9M7Q7 1-263) | binds | binds |  |  |  |  |  |  |
| AtPCNA2-YFP^C (from UniProt Q9ZW35 1-264) |  |  | binds | binds | binds | no binding | binds | no binding |
| OsPCNA-YFP^C (from UniProt P17070 1-263) |  |  | binds | binds |  |  |  |  |

Next, values leading:

| binding [1] | binding [2] | binding [3] | binding [4] | binding [5] | binding [6] | binding [7] | binding [8] | Substance |
| --- | --- | --- | --- | --- | --- | --- | --- | --- |
|  |  | binds | binds | binds | no binding | binds | no binding | AtPCNA1-YFP^C (from UniProt Q9M7Q7 1-263) |
| binds | binds |  |  |  |  |  |  | AtPCNA2-AD (from UniProt Q9ZW35 1-264) |

No constants are given. Whether binding was seen depends on the method and setting. For part of these data: Binding can be weak; no strength is given. For part of these data: In cells and extracts the contact can be indirect.
